Measurements taken from paper PMC7657459, “A second hybrid-binding domain modulates the activity of Drosophila ribonuclease H1”.

Experiments:
[1] = target: T1, RNase H1 ΔII/III D252N D252N,del66-141 (Drosophila melanogaster) (UniProt A1Z769); test: BLI; conditions: BLI: 30 mM Tris-HCl pH 8.0, 100 mM KCl, 10% glycerol, 10 mM EDTA, 2 mM DTT, 400 ug/ml BSA, 30 C, recombinant protein, residues 17-333, protein details: C-terminal 6xHis
T1 sequence (looked up): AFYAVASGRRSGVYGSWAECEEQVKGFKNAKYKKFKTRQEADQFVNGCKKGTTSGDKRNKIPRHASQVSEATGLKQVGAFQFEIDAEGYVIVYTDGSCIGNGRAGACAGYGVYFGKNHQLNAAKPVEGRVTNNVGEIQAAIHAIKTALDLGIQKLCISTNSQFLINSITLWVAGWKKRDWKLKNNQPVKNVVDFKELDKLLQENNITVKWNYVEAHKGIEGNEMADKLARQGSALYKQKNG

[2] = target: T2, RNase H1 D252N (Drosophila melanogaster) (UniProt A1Z769); test: BLI; conditions: BLI: 30 mM Tris-HCl pH 8.0, 100 mM KCl, 10% glycerol, 10 mM EDTA, 2 mM DTT, 400 ug/ml BSA, 30 C, recombinant protein
T2 sequence (looked up): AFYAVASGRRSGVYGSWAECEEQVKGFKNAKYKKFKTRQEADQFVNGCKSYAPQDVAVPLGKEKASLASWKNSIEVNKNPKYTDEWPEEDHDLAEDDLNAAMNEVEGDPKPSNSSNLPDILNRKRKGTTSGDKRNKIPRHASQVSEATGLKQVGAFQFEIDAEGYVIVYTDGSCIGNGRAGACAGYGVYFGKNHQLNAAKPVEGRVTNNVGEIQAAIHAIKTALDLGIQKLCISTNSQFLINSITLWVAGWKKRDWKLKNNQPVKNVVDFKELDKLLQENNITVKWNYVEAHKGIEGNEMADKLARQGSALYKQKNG

[3] = target: T3, RNase H1 ΔI/II D252N (Drosophila melanogaster) (UniProt A1Z769); test: BLI; conditions: 1:1 model; BLI: 30 mM Tris-HCl pH 8.0, 100 mM KCl, 10% glycerol, 10 mM EDTA, 2 mM DTT, 400 ug/ml BSA, 30 C; recombinant protein; residues 87-333; protein details: C-terminal 6xHis; label: 5' biotin; DNA:RNA hybrid
T3 sequence (looked up): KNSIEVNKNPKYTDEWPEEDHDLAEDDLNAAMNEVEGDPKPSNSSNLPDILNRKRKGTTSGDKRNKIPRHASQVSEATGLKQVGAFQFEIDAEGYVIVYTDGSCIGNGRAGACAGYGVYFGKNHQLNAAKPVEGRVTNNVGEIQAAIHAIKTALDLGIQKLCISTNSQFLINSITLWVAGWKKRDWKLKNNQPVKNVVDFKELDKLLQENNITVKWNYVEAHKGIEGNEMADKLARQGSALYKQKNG

[4] = target: T4, RNase H1 ΔII-V (Drosophila melanogaster) (UniProt A1Z769); test: BLI; conditions: 1:1 model; BLI: 30 mM Tris-HCl pH 8.0, 100 mM KCl, 10% glycerol, 10 mM EDTA, 2 mM DTT, 400 ug/ml BSA, 30 C; recombinant protein; residues 17-65; protein details: C-terminal 6xHis; label: 5' biotin; DNA:RNA hybrid
T4 sequence (looked up): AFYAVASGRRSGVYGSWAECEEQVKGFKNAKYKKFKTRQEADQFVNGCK

[5] = target: T5, RNase H1 ΔIII-V (Drosophila melanogaster) (UniProt A1Z769); test: BLI; conditions: 1:1 model; BLI: 30 mM Tris-HCl pH 8.0, 100 mM KCl, 10% glycerol, 10 mM EDTA, 2 mM DTT, 400 ug/ml BSA, 30 C; recombinant protein; residues 17-87; protein details: C-terminal 6xHis; label: 5' biotin; DNA:RNA hybrid
T5 sequence (looked up): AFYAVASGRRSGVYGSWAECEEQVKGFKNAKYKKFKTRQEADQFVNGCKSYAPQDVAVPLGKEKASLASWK

[6] = target: T6, RNase H1 ΔI-III D252N (Drosophila melanogaster) (UniProt A1Z769); test: BLI; conditions: 1:1 model; BLI: 30 mM Tris-HCl pH 8.0, 100 mM KCl, 10% glycerol, 10 mM EDTA, 2 mM DTT, 400 ug/ml BSA, 30 C; recombinant protein; residues 142-333; protein details: C-terminal 6xHis; label: 5' biotin; DNA:RNA hybrid
T6 sequence (looked up): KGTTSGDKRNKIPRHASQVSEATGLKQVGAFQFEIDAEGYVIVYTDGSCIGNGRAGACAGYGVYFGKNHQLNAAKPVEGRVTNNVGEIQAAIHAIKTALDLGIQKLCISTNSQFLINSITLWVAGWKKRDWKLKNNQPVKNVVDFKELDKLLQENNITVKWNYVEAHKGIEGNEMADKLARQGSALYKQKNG

[7] = target: T7, RNase H1 ΔIV/V (Drosophila melanogaster) (UniProt A1Z769); test: BLI; conditions: 1:1 model; BLI: 30 mM Tris-HCl pH 8.0, 100 mM KCl, 10% glycerol, 10 mM EDTA, 2 mM DTT, 400 ug/ml BSA, 30 C; recombinant protein; residues 17-142; protein details: C-terminal 6xHis; label: 5' biotin; DNA:RNA hybrid
T7 sequence (looked up): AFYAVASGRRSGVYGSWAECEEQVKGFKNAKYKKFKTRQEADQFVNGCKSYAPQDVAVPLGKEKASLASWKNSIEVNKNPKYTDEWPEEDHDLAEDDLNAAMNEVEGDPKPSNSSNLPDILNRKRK

[8] = target: T8, mtSSB (Drosophila melanogaster) (UniProt P54622); test: EMSA; conditions: with 1 uM RNase H1 D252N and 30-bp hybrid present; EMSA: 25 mM Tris-HCl pH 8.0, 25 mM KCl, 1 mM DTT, 10 mM EDTA, 20 ug/ml BSA, room temperature, 30 min; recombinant protein; single-stranded DNA
T8 sequence (looked up, limits assumed): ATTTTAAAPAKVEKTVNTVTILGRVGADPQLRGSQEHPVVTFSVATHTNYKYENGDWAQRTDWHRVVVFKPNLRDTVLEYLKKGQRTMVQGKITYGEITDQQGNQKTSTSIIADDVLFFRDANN

[9] = target: T1, RNase H1 ΔII/III D252N D252N,del66-141 (Drosophila melanogaster); test: EMSA; conditions: supershift at high protein; EMSA: 25 mM Tris-HCl pH 8.0, 25 mM KCl, 1 mM DTT, 10 mM EDTA, 20 ug/ml BSA, room temperature, 30 min; recombinant protein; residues 17-333; protein details: C-terminal 6xHis
[10] = target: T3, RNase H1 ΔI/II D252N (Drosophila melanogaster); test: EMSA; conditions: supershift at high protein; EMSA: 25 mM Tris-HCl pH 8.0, 25 mM KCl, 1 mM DTT, 10 mM EDTA, 20 ug/ml BSA, room temperature, 30 min; recombinant protein; residues 87-333; protein details: C-terminal 6xHis
[11] = target: T6, RNase H1 ΔI-III D252N (Drosophila melanogaster); test: EMSA; conditions: supershift at high protein; EMSA: 25 mM Tris-HCl pH 8.0, 25 mM KCl, 1 mM DTT, 10 mM EDTA, 20 ug/ml BSA, room temperature, 30 min; recombinant protein; residues 142-333; protein details: C-terminal 6xHis
[12] = target: T2, RNase H1 D252N (Drosophila melanogaster); test: EMSA; conditions: supershift at high protein; EMSA: 25 mM Tris-HCl pH 8.0, 25 mM KCl, 1 mM DTT, 10 mM EDTA, 20 ug/ml BSA, room temperature, 30 min; recombinant protein; residues 17-333; protein details: C-terminal 6xHis (+2 vector residues)

Which Kd ([1]; KD1, 2:1 model, label: 5' biotin on S3 for BLI) does the source give for “AAGTAGGGCACGCTATAGTTAGTCTTCGCG (double strand) [30-bp dsDNA]” here?
Its Kd is 1900 nM.

What about the Kd ([1]; KD2, 2:1 model, label: 5' biotin on S3 for BLI) of the same sequence?
Its Kd is 120 nM.

What about the Kd ([2]; KD1, 2:1 model, residues 17-333, protein details: C-terminal 6xHis (+2 vector residues), label: 5' biotin on S3 for BLI) of the same sequence?
The Kd was 13000 nM.

What about the Kd ([2]; KD2, 2:1 model, residues 17-333, protein details: C-terminal 6xHis (+2 vector residues), label: 5' biotin on S3 for BLI) of the same sequence?
The Kd was 340 nM.

What does the source list for “AAGUAGGGCACGCUAUAGUUAGUCUUCGCG / CGCGAAGACUAACUAUAGCGUGCCCUACUU [30-bp dsRNA]”?
Kd ([1]; KD1, 2:1 model, label: 5' biotin on S2 for BLI): 2100 nM; Kd ([1]; KD2, 2:1 model, label: 5' biotin on S2 for BLI): 940 nM; Kd ([2]; KD1, 2:1 model, residues 17-333, protein details: C-terminal 6xHis (+2 vector residues), label: 5' biotin on S2 for BLI): 2200 nM; Kd ([2]; KD2, 2:1 model, residues 17-333, protein details: C-terminal 6xHis (+2 vector residues), label: 5' biotin on S2 for BLI): 750 nM

What does the source list for “CGCGAAGACUAACUAUAGCGUGCCCUACUU / AAGTAGGGCACGCTATAGTTAGTCTTCGCG [30-bp RNA/DNA hybrid (BLI)]”?
Kd ([1]; KD1, 2:1 model, label: 5' biotin, DNA:RNA hybrid): 110 nM; Kd ([1]; KD2, 2:1 model, label: 5' biotin, DNA:RNA hybrid): 0.65 nM; Kd [3]: 750 nM; Kd [4]: 140 nM; Kd [5]: 170 nM; Kd [6]: 720 nM; Kd [7]: 370 nM; Kd ([2]; KD1, 2:1 model, residues 17-333, protein details: C-terminal 6xHis (+2 vector residues), label: 5' biotin, DNA:RNA hybrid): 550 nM; Kd ([2]; KD2, 2:1 model (text: 0.23), residues 17-333, protein details: C-terminal 6xHis (+2 vector residues), label: 5' biotin, DNA:RNA hybrid): 0.22 nM

Does “TCATCAGTAGAAGAGACCATGAGGGCTCCCTGACAGATCCCTATGTCGCTTCCGCCGTCA [60nt_ssDNA]” bind [8]?
Result: binds

What does the source list for “TGACGGCGGAAGCGACATAGGGATCTGGGGATGAAGCAATCCAACGCTACGCATGTGAAGTACAGCCCTCATGGTCTCTTCTACTGATGA / TCATCAGTAGAAGAGACCATGAGGGCTCCCAAGTAGGGCACGCTATAGTTAGTCTTCGCGTGACAGATCCCTATGTCGCTTCCGCCGTCA / CGCGAAGACUAACUAUAGCGUGCCCUACUU [R-loop 90 nt with 30-nt RNA]”?
binding result [9]: binds; binding result [10]: binds; binding result [11]: binds; binding result [12]: binds

The exact form of at least one protein or probe is not confirmed. For some of these results: At least one verdict rests on a figure or table, not on a statement of the authors. Protein sequences can lack the tags named with them.
